{"source": "PubChem BioAssay AID504764, Drosophila RNAi Screening Center, 2011", "screen": "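Genome-wide screen for regulators of Notch-driven gene expression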 (primary screen)", "cells": "Drosophila Kc167 cells", "knock-down reagent": "long dsRNA against Drosophila genes", "timing": "about 5 days (4 days dsRNA, then 24 h after transfection)", "challenge": "transfection of constitutively active membrane-tethered Notch lacking the extracellular domain, read 24 h later", "measurement": "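Firefly luciferase from an E(spl)m3 reporter with active Notch, plus control-promoter and uninduced reporter wells for normalisation; unnormalised counts, duplicate wells a and b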", "direction": "induced reporter light, run 1, well a and induced reporter light, run 1, well b: higher = more light from the Notch target reporter with active Notch; control promoter light, run 1, well a and control promoter light, run 1, well b: higher = more light from the viral control promoter (cell number, transfection, viability); uninduced reporter light, run 1, well a: higher = more light from the Notch target reporter without active Notch", "hit rule": "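Hit if the duplicate-averaged log2 ratio of induced to control-promoter light gives a plate-wise z beyond ±2, or induced to uninduced beyond ±1.8; weak-control or discordant-duplicate wells dropped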", "calls": "active = modifier hit (raised or lowered Notch signal); inactive = not a hit", "note": "In all, the deposit lists about 22,000 reagents; below is a random part of those with a known target gene and a result. In the full data, 403 (1.9%) were called active. 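Unnormalised raw counts per well; ratio z-scores behind the hit calls and whether each hit raises or lowers signal are not deposited.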 Reagent sequences are not shown. Not stated in the record: the amount of reagent."}
{"Target gene":"CG10939 (GeneID 44155)","dsRNA":"DRSC06019","induced reporter light, run 1, well a":1.03e5,"induced reporter light, run 1, well b":1.15e5,"control promoter light, run 1, well a":1.83e5,"control promoter light, run 1, well b":2.43e5,"uninduced reporter light, run 1, well a":10460,"Call":"inactive"}
{"Target gene":"CG10939 (GeneID 44155)","dsRNA":"DRSC21734","Call":"inactive"}
{"Target gene":"CG31058 (retired record) (GeneID 43320)","dsRNA":"DRSC15840","induced reporter light, run 1, well a":6980,"induced reporter light, run 1, well b":6695,"control promoter light, run 1, well a":11705,"control promoter light, run 1, well b":12325,"uninduced reporter light, run 1, well a":2700,"Call":"inactive"}
{"Target gene":"Ilp3 (GeneID 39151)","dsRNA":"DRSC10168","induced reporter light, run 1, well a":1.83e5,"induced reporter light, run 1, well b":1.82e5,"control promoter light, run 1, well a":3.02e5,"control promoter light, run 1, well b":2.52e5,"uninduced reporter light, run 1, well a":11555,"Call":"inactive"}
{"Target gene":"Ugt49B1 (GeneID 37420)","dsRNA":"DRSC04461","induced reporter light, run 1, well a":50360,"induced reporter light, run 1, well b":42385,"control promoter light, run 1, well a":42910,"control promoter light, run 1, well b":42105,"uninduced reporter light, run 1, well a":2132,"Call":"inactive"}
{"Target gene":"HDAC3 (GeneID 44446)","dsRNA":"DRSC12352","induced reporter light, run 1, well a":1.64e5,"induced reporter light, run 1, well b":1.58e5,"control promoter light, run 1, well a":93545,"control promoter light, run 1, well b":83730,"uninduced reporter light, run 1, well a":16000,"Call":"inactive"}
{"Target gene":"CG14568 (GeneID 40418)","dsRNA":"DRSC11729","induced reporter light, run 1, well a":1.03e5,"induced reporter light, run 1, well b":1.02e5,"control promoter light, run 1, well a":95195,"control promoter light, run 1, well b":90965,"uninduced reporter light, run 1, well a":7820,"Call":"inactive"}
{"Target gene":"CG13028 (GeneID 2768967)","dsRNA":"DRSC09908","induced reporter light, run 1, well a":1.73e5,"induced reporter light, run 1, well b":1.82e5,"control promoter light, run 1, well a":2.72e5,"control promoter light, run 1, well b":1.62e5,"uninduced reporter light, run 1, well a":10192,"Call":"inactive"}
{"Target gene":"CG34183 (GeneID 5740752)","dsRNA":"DRSC01099","induced reporter light, run 1, well a":1.75e5,"induced reporter light, run 1, well b":1.57e5,"control promoter light, run 1, well a":2.30e5,"control promoter light, run 1, well b":1.89e5,"uninduced reporter light, run 1, well a":11475,"Call":"inactive"}
{"Target gene":"GlcAT-I (GeneID 251900)","dsRNA":"DRSC17307","induced reporter light, run 1, well a":55150,"induced reporter light, run 1, well b":68645,"control promoter light, run 1, well a":70660,"control promoter light, run 1, well b":82970,"uninduced reporter light, run 1, well a":4765,"Call":"inactive"}
{"Target gene":"sav (GeneID 252554)","dsRNA":"DRSC14681","induced reporter light, run 1, well a":2.14e5,"induced reporter light, run 1, well b":1.84e5,"control promoter light, run 1, well a":2.38e5,"control promoter light, run 1, well b":2.52e5,"uninduced reporter light, run 1, well a":16690,"Call":"inactive"}
{"Target gene":"sav (GeneID 252554)","dsRNA":"DRSC14682","induced reporter light, run 1, well a":1.95e5,"induced reporter light, run 1, well b":1.80e5,"control promoter light, run 1, well a":2.37e5,"control promoter light, run 1, well b":2.02e5,"uninduced reporter light, run 1, well a":14855,"Call":"inactive"}
{"Target gene":"CG2887 (GeneID 31978)","dsRNA":"DRSC18235","induced reporter light, run 1, well a":1.10e5,"induced reporter light, run 1, well b":94670,"control promoter light, run 1, well a":1.35e5,"control promoter light, run 1, well b":96350,"uninduced reporter light, run 1, well a":7590,"Call":"inactive"}
{"Target gene":"laza (GeneID 40468)","dsRNA":"DRSC11661","induced reporter light, run 1, well a":1.32e5,"induced reporter light, run 1, well b":1.49e5,"control promoter light, run 1, well a":71145,"control promoter light, run 1, well b":88945,"uninduced reporter light, run 1, well a":8880,"Call":"inactive"}
{"Target gene":"l(2)34Fd (GeneID 34839)","dsRNA":"DRSC01911","induced reporter light, run 1, well a":2.84e5,"induced reporter light, run 1, well b":2.46e5,"control promoter light, run 1, well a":2.03e5,"control promoter light, run 1, well b":2.18e5,"uninduced reporter light, run 1, well a":16665,"Call":"inactive"}
{"Target gene":"eIF3f1 (GeneID 40587)","dsRNA":"DRSC12328","induced reporter light, run 1, well a":23285,"induced reporter light, run 1, well b":17095,"control promoter light, run 1, well a":21115,"control promoter light, run 1, well b":22115,"uninduced reporter light, run 1, well a":2028,"Call":"inactive"}
{"Target gene":"melt (GeneID 38785)","dsRNA":"DRSC11367","induced reporter light, run 1, well a":1.76e5,"induced reporter light, run 1, well b":1.85e5,"control promoter light, run 1, well a":2.04e5,"control promoter light, run 1, well b":1.52e5,"uninduced reporter light, run 1, well a":9590,"Call":"inactive"}
{"Target gene":"Atf-2 (GeneID 37978)","dsRNA":"DRSC04130","induced reporter light, run 1, well a":2.07e5,"induced reporter light, run 1, well b":2.20e5,"control promoter light, run 1, well a":1.87e5,"control promoter light, run 1, well b":1.72e5,"uninduced reporter light, run 1, well a":14795,"Call":"inactive"}
{"Target gene":"Atf-2 (GeneID 37978)","dsRNA":"DRSC04413","induced reporter light, run 1, well a":2.02e5,"induced reporter light, run 1, well b":1.89e5,"control promoter light, run 1, well a":3.16e5,"control promoter light, run 1, well b":3.02e5,"uninduced reporter light, run 1, well a":12465,"Call":"inactive"}
{"Target gene":"CG31601 (GeneID 318835)","dsRNA":"DRSC03678","induced reporter light, run 1, well a":85160,"induced reporter light, run 1, well b":86665,"control promoter light, run 1, well a":82545,"control promoter light, run 1, well b":76945,"uninduced reporter light, run 1, well a":8790,"Call":"inactive"}
{"Target gene":"meso18E (GeneID 53448)","dsRNA":"DRSC20351","induced reporter light, run 1, well a":55680,"induced reporter light, run 1, well b":63365,"control promoter light, run 1, well a":70480,"control promoter light, run 1, well b":75600,"uninduced reporter light, run 1, well a":8445,"Call":"inactive"}
{"Target gene":"CG42717 (GeneID 10178897)","dsRNA":"DRSC09411","induced reporter light, run 1, well a":2.35e5,"induced reporter light, run 1, well b":2.10e5,"control promoter light, run 1, well a":2.67e5,"control promoter light, run 1, well b":3.18e5,"uninduced reporter light, run 1, well a":22235,"Call":"inactive"}
{"Target gene":"VhaM9.7-b (GeneID 40389)","dsRNA":"DRSC11841","induced reporter light, run 1, well a":1.41e5,"induced reporter light, run 1, well b":94005,"control promoter light, run 1, well a":1.13e5,"control promoter light, run 1, well b":81555,"uninduced reporter light, run 1, well a":9200,"Call":"inactive"}
{"Target gene":"Dgk (GeneID 35738)","dsRNA":"DRSC05064","induced reporter light, run 1, well a":28105,"induced reporter light, run 1, well b":32385,"control promoter light, run 1, well a":38435,"control promoter light, run 1, well b":25605,"uninduced reporter light, run 1, well a":3240,"Call":"inactive"}
{"Target gene":"Dgk (GeneID 35738)","dsRNA":"DRSC05065","induced reporter light, run 1, well a":67040,"induced reporter light, run 1, well b":92645,"control promoter light, run 1, well a":1.21e5,"control promoter light, run 1, well b":1.18e5,"uninduced reporter light, run 1, well a":3945,"Call":"inactive"}
{"Target gene":"Dgk (GeneID 35738)","dsRNA":"DRSC06171","induced reporter light, run 1, well a":1.73e5,"induced reporter light, run 1, well b":1.55e5,"control promoter light, run 1, well a":1.63e5,"control promoter light, run 1, well b":1.91e5,"uninduced reporter light, run 1, well a":14115,"Call":"inactive"}
{"Target gene":"Dgk (GeneID 35738)","dsRNA":"DRSC06782","induced reporter light, run 1, well a":2.01e5,"induced reporter light, run 1, well b":1.86e5,"control promoter light, run 1, well a":2.60e5,"control promoter light, run 1, well b":2.83e5,"uninduced reporter light, run 1, well a":23050,"Call":"inactive"}
{"Target gene":"Dgk (GeneID 35738)","dsRNA":"DRSC22236","Call":"inactive"}
